At least one structure is not confirmed: it was looked up by name or label, or the drawing left a doubt.
Columns and labels:
Assay type in all cases: cell-based
Kir1.1 (ROMK1) = molecular target: T1, Kir1.1 (ROMK1) (Homo sapiens, UniProt P48048); test: Effect of retigabine on cloned potassium channels, two-electrode voltage clamp; conditions: Xenopus oocytes
T1 construct: expressed in transfected cells; host or cells: Xenopus oocytes (cRNA injection)
T1 sequence (P48048 1-391): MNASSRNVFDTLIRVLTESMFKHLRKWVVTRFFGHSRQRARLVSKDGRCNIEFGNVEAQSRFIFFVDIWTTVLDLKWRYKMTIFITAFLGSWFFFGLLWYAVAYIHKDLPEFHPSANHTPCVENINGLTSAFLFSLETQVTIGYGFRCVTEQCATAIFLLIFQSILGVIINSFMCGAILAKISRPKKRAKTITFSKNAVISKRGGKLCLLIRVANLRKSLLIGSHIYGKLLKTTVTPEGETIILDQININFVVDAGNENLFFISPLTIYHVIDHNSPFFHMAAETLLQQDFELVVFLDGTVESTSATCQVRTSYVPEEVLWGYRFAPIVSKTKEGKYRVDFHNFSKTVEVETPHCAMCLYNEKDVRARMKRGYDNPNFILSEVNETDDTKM

Kir2.1 (IRK1) = molecular target: T2, Kir2.1 (IRK1) (Homo sapiens, UniProt P63252); test: as above; conditions: Xenopus oocytes
T2 construct: expressed in transfected cells; host or cells: Xenopus oocytes (cRNA injection)
T2 sequence (P63252 1-427): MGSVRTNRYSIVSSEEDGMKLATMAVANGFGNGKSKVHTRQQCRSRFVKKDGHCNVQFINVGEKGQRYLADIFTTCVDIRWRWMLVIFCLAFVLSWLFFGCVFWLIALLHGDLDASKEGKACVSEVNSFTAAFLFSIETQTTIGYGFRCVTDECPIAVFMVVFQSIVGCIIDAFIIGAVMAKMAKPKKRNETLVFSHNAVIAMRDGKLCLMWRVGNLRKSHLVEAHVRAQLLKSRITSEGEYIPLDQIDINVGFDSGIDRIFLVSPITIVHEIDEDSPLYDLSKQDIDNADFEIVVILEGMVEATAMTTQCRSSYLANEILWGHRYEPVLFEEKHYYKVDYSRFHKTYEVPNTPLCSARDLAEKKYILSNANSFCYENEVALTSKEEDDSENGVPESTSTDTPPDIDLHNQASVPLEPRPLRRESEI

Kir2.3 (IRK3) = molecular target: T3, Kir2.3 (IRK3) (Homo sapiens, UniProt P48050); test: as above; conditions: Xenopus oocytes
T3 construct: expressed in transfected cells; host or cells: Xenopus oocytes (cRNA injection)
T3 sequence (P48050 1-445): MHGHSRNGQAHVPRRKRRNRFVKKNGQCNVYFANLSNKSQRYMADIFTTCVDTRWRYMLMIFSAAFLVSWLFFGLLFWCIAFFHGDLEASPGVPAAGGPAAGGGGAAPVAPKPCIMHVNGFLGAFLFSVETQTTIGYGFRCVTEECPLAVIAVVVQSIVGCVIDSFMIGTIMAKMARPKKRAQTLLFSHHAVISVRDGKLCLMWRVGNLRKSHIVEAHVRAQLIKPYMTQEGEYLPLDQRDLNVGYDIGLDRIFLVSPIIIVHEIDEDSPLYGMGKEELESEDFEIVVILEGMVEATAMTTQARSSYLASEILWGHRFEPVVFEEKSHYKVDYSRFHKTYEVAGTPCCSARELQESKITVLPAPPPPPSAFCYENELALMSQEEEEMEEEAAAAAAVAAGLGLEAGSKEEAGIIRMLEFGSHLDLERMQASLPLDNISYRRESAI

Kir3.4 (GIRK4) = molecular target: T4, Kir3.4 (GIRK4) (Homo sapiens, UniProt P48544); test: as above; conditions: Xenopus oocytes
T4 construct: expressed in transfected cells; host or cells: Xenopus oocytes (cRNA injection)
T4 sequence (P48544 1-419): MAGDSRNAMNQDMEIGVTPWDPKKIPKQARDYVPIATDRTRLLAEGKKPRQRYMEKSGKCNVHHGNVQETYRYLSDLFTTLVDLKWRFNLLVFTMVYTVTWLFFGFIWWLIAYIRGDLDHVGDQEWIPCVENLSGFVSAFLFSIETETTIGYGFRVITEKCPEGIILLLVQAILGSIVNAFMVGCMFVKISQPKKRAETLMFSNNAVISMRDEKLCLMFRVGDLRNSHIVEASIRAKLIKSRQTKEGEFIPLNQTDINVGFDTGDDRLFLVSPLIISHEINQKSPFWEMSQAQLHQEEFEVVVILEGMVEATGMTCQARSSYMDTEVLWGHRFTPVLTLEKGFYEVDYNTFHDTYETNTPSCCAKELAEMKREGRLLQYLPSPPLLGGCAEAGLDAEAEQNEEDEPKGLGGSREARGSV

r-eag1 = molecular target: T5, r-eag1 (Rattus norvegicus, UniProt Q63472); test: Effect of retigabine on cloned potassium channels, patch clamp; conditions: r-eag1, CHO cells
T5 construct: expressed in transfected cells; host or cells: CHO cells (liposome cDNA transfection)
T5 sequence (Q63472 1-962): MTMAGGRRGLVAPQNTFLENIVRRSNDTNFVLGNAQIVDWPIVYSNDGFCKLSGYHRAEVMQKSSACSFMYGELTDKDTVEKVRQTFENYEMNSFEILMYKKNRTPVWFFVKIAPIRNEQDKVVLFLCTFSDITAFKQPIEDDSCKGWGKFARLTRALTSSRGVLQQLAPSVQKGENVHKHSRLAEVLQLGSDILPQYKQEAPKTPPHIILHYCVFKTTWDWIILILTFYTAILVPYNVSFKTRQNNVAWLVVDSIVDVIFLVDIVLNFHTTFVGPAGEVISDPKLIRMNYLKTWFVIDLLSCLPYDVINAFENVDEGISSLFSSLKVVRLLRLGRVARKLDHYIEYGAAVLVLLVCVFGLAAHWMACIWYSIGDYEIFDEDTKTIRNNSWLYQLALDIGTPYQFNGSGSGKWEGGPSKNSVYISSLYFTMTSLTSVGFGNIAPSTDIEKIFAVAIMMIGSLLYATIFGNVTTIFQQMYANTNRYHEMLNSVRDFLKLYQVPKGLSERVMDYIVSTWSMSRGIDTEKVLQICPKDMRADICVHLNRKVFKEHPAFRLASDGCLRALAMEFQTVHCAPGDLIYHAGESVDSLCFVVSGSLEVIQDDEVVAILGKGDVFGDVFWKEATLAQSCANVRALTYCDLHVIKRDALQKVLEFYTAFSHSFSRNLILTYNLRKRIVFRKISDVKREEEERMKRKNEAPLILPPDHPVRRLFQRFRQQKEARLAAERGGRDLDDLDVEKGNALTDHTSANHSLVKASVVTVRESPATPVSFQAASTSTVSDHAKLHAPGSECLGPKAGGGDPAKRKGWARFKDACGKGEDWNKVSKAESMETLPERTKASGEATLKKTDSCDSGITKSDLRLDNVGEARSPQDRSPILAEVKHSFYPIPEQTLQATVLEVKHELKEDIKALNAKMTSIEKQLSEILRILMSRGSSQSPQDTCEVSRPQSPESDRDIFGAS

KCNQ2 & KCNQ3 = molecular target: T6, KCNQ2 & KCNQ3 (Homo sapiens, UniProt O43525+O43526); test: as above
T6 construct: expressed in transfected cells; host or cells: CHO cells (liposome cDNA transfection)

Compound: CCOC(=O)Nc1ccc(NCc2ccc(F)cc2)cc1N [retigabine, 2-amino-4-(4-fluorobenzylamino)-1-ethoxycarbonyl-aminobenzene]
- Effect of 10 μM of Retigabine (Kir1.1 (ROMK1)): No effect
- Effect of 10 μM of Retigabine (Kir2.1 (IRK1)): No effect
- Effect of 10 μM of Retigabine (Kir2.3 (IRK3)): No effect
- Effect of 10 μM of Retigabine (Kir3.4 (GIRK4)): No effect
- Effect of 10 μM of Retigabine (r-eag1): No effect
- Current voltage curve obtained by stepwise hyperpolarization/depolarization (KCNQ2 & KCNQ3; CHO cells containing KCNQ2 together with KCNQ3, in the presence of retigabine): shifted in its activation to more negative potentials
- Effect of 10 μM of Retigabine: induced current (very strong activation) (KCNQ2 & KCNQ3; KCNQ2 & KCNQ3, CHO cells, 10 μM, cells slightly depolarized (−60 or −50 mV)): retigabine (1527 ± 177 pA)
- Effect of 10 μM of Retigabine: induced current (strong activation) (KCNQ2 & KCNQ3; KCNQ2 & KCNQ3 in the presence of stable cAMP analogs (saturating 8-bromo-cAMP in pipette solution), CHO cells, 10 μM): retigabine (1100-1400 pA)
